This series addresses p53 (UniProt P04637). Description: EMSA supershift. The note with it: anti-p53, SK-HEP-1 nuclear extract; EMSA: LightShift kit, room temperature 30 min; protein in an extract; label: biotin.

The exact form of at least one protein or probe is not confirmed. At least one result comes from cells or an extract, where the contact may be indirect.

Turning to “GAGCTGGAGCGCCCAGGGCATGTCCGCCGA (double strand) [lnc-Ip53 p53RE probe]”, the binding result is reported as “binds”.

These data come from paper PMC7610266.
